# Laboratory results from PMC12288870.
# Protein sequences, listed by entry. Tags and fused reporters are not part of them.
# UniProt O60573: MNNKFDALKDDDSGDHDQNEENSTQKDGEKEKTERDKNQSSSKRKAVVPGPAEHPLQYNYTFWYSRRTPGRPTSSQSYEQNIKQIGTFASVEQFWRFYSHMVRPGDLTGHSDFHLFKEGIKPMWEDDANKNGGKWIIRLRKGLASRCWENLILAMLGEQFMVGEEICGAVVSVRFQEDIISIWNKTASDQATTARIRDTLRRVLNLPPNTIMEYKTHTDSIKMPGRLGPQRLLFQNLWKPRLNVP
# Results are given in words; binding and its absence hold for the method and conditions named. Binding seen in cells or lysates may run through a third protein. A yes stands for co-enrichment or nearness to the bait. Other partners may have been found.
# T1: GIGYF2 (human (endogenous in Calu-3, HEK293T, HEK293T-ACE2)) (UniProt Q6Y7W6)
# T1 sequence: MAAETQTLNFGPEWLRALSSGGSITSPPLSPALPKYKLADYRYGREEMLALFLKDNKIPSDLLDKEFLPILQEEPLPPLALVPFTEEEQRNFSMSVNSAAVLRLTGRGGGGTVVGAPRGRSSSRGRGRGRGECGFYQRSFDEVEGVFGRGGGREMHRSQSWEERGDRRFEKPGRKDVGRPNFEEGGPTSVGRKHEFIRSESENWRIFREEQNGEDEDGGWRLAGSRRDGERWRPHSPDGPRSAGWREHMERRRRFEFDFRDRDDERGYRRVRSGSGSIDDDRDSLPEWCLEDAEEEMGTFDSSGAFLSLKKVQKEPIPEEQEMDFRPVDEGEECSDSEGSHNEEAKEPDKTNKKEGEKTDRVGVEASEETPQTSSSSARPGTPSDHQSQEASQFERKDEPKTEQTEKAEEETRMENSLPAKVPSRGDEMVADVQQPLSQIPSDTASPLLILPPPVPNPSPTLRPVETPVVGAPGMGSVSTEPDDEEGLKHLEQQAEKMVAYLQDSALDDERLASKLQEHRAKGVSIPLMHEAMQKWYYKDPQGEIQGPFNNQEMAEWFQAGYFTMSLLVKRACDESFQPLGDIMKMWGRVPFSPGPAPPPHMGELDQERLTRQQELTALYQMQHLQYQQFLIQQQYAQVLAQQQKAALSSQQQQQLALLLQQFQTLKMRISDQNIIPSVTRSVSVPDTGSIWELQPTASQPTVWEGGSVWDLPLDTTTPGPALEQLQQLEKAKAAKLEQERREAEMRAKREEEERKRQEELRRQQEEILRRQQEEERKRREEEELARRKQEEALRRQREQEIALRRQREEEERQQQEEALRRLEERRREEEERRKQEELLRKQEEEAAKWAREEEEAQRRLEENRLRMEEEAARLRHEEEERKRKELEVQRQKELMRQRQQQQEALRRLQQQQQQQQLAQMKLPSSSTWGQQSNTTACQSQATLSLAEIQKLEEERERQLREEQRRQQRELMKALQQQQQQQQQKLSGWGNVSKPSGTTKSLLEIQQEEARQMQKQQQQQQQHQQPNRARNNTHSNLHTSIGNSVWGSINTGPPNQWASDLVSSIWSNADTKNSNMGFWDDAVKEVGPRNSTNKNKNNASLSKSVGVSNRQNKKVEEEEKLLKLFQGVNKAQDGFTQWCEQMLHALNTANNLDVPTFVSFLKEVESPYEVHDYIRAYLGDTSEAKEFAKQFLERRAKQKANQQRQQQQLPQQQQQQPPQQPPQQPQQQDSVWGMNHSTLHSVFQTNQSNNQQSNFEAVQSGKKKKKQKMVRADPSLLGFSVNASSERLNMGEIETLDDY
# Target: T1, GIGYF2 (human (endogenous in Calu-3, HEK293T, HEK293T-ACE2))
# Assay: affinity purification with mass spectrom
row,binding,Molecule
1,binds,eIF4E2 (from UniProt O60573 1-245)
2,binds,"ZNF598 (protein, UniProt Q86UK7 1-904) MAAAGGAEGRRAALEAAAAAAPERGGGSCVLCCGDLEATALGRCDHPVCYRCSTKMRVLCEQRYCAVCREELRQVVFGKKLPAFATIPIHQLQHEKKYDIYFADGKVYALYRQLLQHECPRCPELPPFSLFGDLEQHMRRQHELFCCRLCLQHLQIFTYERKWYSRKDLARHRMQGDPDDTSHRGHPLCKFCDERYLDNDELLKHLRRDHYFCHFCDSDGAQDYYSDYAYLREHFREKHFLCEEGRCSTEQFTHAFRTEIDLKAHRTACHSRSRAEARQNRHIDLQFSYAPRHSRRNEGVVGGEDYEEVDRYSRQGRVARAGTRGAQQSRRGSWRYKREEEDREVAAAVRASVAAQQQEEARRSEDQEEGGRPKKEEAAARGPEDPRGPRRSPRTQGEGPGPKETSTNGPVSQEAFSVTGPAAPGCVGVPGALPPPSPKLKDEDFPSLSASTSSSCSTAATPGPVGLALPYAIPARGRSAFQEEDFPALVSSVPKPGTAPTSLVSAWNSSSSSKKVAQPPLSAQATGSGQPTRKAGKGSRGGRKGGPPFTQEEEEDGGPALQELLSTRPTGSVSSTLGLASIQPSKVGKKKKVGSEKPGTTLPQPPPATCPPGALQAPEAPASRAEGPVAVVVNGHTEGPAPARSAPKEPPGLPRPLGSFPCPTPQEDFPALGGPCPPRMPPPPGFSAVVLLKGTPPPPPPGLVPPISKPPPGFSGLLPSPHPACVPSPATTTTTKAPRLLPAPRAYLVPENFRERNLQLIQSIRDFLQSDEARFSEFKSHSGEFRQGLISAAQYYKSCRDLLGENFQKVFNELLVLLPDTAKQQELLSAHTDFCNREKPLSTKSKKNKKSAWQATTQQAGLDCRVCPTCQQVLAHGDASSHQALHAARDDDFPSLQAIARIIT"
